This data set in a line: general procedure: solution-phase peptide synthesis; 1,3-dicyclohexylcarbodiimide / 1-hydroxybenzotriazole monohydrate. The following applies: coupling step.

The substance “(S)-2-[(2-furoyl)-β-cyclohexyl-L-alanyl-glycyl-glycyl-amino]-5-(1-piperidinyl)pentanoic acid N-[2-(1-piperidinyl)ethyl] amide dihydrochloride” came in with a step yield of 58%.

Consider “(S)-2-[(2-furoyl)-β-cyclohexyl-L-alanyl-glycyl-glycyl-amino]-5-(1-piperidinyl)pentanoic acid benzyl amide”, for which the step yield was 94%.
